Data taken from the supplement of paper PMC5949888.
± gives the standard deviation of the averaged measurements. Most values lie at the floor of the assay. Slopes are relative: functional sequences can read slightly below zero.

Test system: Saccharomyces cerevisiae PS128 hsf1 delta, HSF1(1-493) fusion
Experiment: growth estimate (transactivation domain function in HSF1 fusion, heat-shock survival) (a.u. (slope of normalised read count over time)); higher = stronger growth at 37°C, i.e. more transactivation activity
Conditions: library: random library

Substance	growth estimate
RYTANVGLRICTACFSIESS	< -0.25
GCPGAGRSL	< -0.25
TEEMGFIGYI	< -0.25
LAQNHFLFTVGI	< -0.25
KPNVPRRQMGLGFW	-0.246
HMEVV	< -0.25
SGEMSWQIADYGIRGHQGSV	< -0.25
RFGAFKILTAAPGDALKMMF	< -0.25
IKYTEQRGWTDYNSSAVHAD	< -0.25
VAGVTRSGMYLRLSVDLGRL	< -0.25
NLLAERKWI	< -0.25
TPTGDSHARGICQSFSGSTY	< -0.25
RSCLEVRVTGHGTRLSVDSA	< -0.25
VWSRSCTQRAARLSGGRQGG	< -0.25
ATWGPQVLPSVAPGATVLR	< -0.25
LSGPWLGLA	-0.246
NKSA	< -0.25
SDTTDLRQVLPRYSCIDLTS	< -0.25
RWEPAQVEGFGDFA	< -0.25
AFPRRSRNAQASASGYLIGS	< -0.25
CGDVRFDVPVVGHETWLVD	-0.246
LRLYIGASCVQTVEVRSARM	< -0.25
YLFTFPSGSR	-0.21

Substance	growth estimate
LCYRRASR	< -0.25
VSPEHL	< -0.25
GYLPYYRLEMSYQFLNWVAY	< -0.25
PQLNSRCRWMGVRTQDPNEN	< -0.25
CLAVRCRVTKP	< -0.25
RHCLRQHCEFSLGRLLSNYR	< -0.25
RGRSFLKHTILR	< -0.25
PLRDDQMSV	< -0.25
CLHTLWEIYWVAVEYTLGSV	< -0.25
VFPFGVRLQGVSKMGAP	< -0.25
FWALKYVAAAQ	< -0.25
SKLHESRSSEVARHES	-0.231
LSAW	< -0.25
GDTSVRGIMTVNARRNLPPK	< -0.25
DSLSTVGASSATS	< -0.25
GRKG	< -0.25
IVASV	< -0.25
HQGDRWAPDVIRGDLIPGVP	< -0.25
PLGPPNFVSLPG	< -0.25
DGAIWFGNRLPLESHRVIRV	< -0.25
LDPIIFSGGSTA	< -0.25
ACPQS	< -0.25
WRILPMLT	< -0.25

Individual results from the entries so far.
In growth estimate, SDTTDLRQVLPRYSCIDLTS reads < -0.25
In growth estimate, VWSRSCTQRAARLSGGRQGG reads < -0.25

The list continues:

Substance	growth estimate
ERGAIAFRRRIYVGQLCSRL	< -0.25
AGFGSVLMVMSGGMIHRDTR	< -0.25
VFRTVTIFESEALVEYHQVP	< -0.25
NGKVLRLIYFLVDRGHPSCR	< -0.25
VRVQA	-0.245
RKLLWDDHILFER	< -0.25
TCWG	< -0.25
GQASSLTIS	< -0.25
ALPSTRGSVSSSLEFECRDW	< -0.25
LRYPMAIGGYHGLPVL	-0.245
EGGD	< -0.25
TTAGKLWP	< -0.25
TSAPEIKSGLAATQADRCSC	< -0.25
IGLLTVPRSQGGIVVAYGCT	< -0.25
SAISSGATAFGTKVGKPGTG	< -0.25
SGDLQS	< -0.25
IPQ	< -0.25
QLSDFLITEE	-0.174
ADVGCGHGRYMGPLWVRDTQ	< -0.25
EYATCLQLITLCLPRASAGP	< -0.25
DHFSSS	< -0.25
PDKSDPWRAASLGAPVLGPA	< -0.25
PEPSTGYVELRLVKSKLRQQ	< -0.25

Seven entries from above, in markdown:

| Substance | growth estimate |
| --- | --- |
| SGEMSWQIADYGIRGHQGSV | < -0.25 |
| NKSA | < -0.25 |
| RWEPAQVEGFGDFA | < -0.25 |
| CLAVRCRVTKP | < -0.25 |
| RHCLRQHCEFSLGRLLSNYR | < -0.25 |
| IVASV | < -0.25 |
| GQASSLTIS | < -0.25 |

The list goes on.

Substance	growth estimate
TCHHLDY	< -0.25
GTSLNLAFGTVPRAEGPAEK	< -0.25
NSSVPPVDDNSQPSIATPGP	< -0.25
VTPVPTTVGGAPGHRSDGVV	< -0.25
MSSTRPLALGYNQSSMVVYP	< -0.25
DHIFQLVGFRIHGRKFDHLI	0.0323
SQRSRM	< -0.25
RRGTPGRMSFS	< -0.25
RKFHVGVSGRNSVP	< -0.25
RQRGFHGIQTKLASGIAGDG	< -0.25
RCCIYGHVWTRIVGWSQAVA	< -0.25
VAYGSLNLSQTVVGSTAI	< -0.25
SLEQWASHGKAGVQEDWNLG	< -0.25
VCKASGSQKEIRGDTRALRP	< -0.25
GSAKLVPTTHVP	< -0.25
VKHAETALVVKVTVACALPA	< -0.25
VLRF	< -0.25
TCFLHLRIFRSRCSLEDFRP	< -0.25
RPFGQYAATTRGLSF	-0.134
CGLATRDGTFT	< -0.25
LTS	-0.247 ± 0.0037
VLPLHFAL	< -0.25
GSRER	< -0.25

Substance	growth estimate
CVILQ	< -0.25
RALWRT	< -0.25
PVSM	-0.208
GGVHLEI	< -0.25
KVHLRGYGGPRGY	< -0.25
LSRGCWSSGARGWSTSSGEW	< -0.25
DVARVAYWWDTWQT	-0.194
KRITVGQTRWLS	< -0.25
TVGG	< -0.25
LLEPPNTWQRTMLFSLRLRL	< -0.25
LRACVDSFTIKEVYNAAERY	< -0.25
KSLRC	< -0.25
VRGALLGSVTLVCTGARLQN	< -0.25
AGSFTVPVLFYRPDVLPTPI	< -0.25
LTTVVRRRRTRR	-0.246
CIQPRKTIGVGLIRISHRAP	< -0.25
DSGAGSI	< -0.25
LRGKVS	< -0.25
TGCDNSDRRVLILRAPYYEI	< -0.25
LHAYV	< -0.25
ADIAPSCCRGFIDL	< -0.25
VIGPYGAPASALMGLGVRAQ	< -0.25
YFIPMGCPKPAGGIRK	< -0.25

Substance	growth estimate
LINATCPSKGWRASLGNATP	< -0.25
NSLNRSSTGREADGGLILYP	< -0.25
RAQSHVEFKISLGIHTGQNR	< -0.25
HDGCSFNHEIVMVEH	< -0.25
VTKPSIMLKGL	< -0.25
EGLLSHDASRRHRA	< -0.25
GLTAVSGVSARAPPLLFNRL	< -0.25
FRPSSKRLVAYPCDFEGTAG	-0.231
TFRW	< -0.25
SDVTRVF	< -0.25
LTYRSV	< -0.25
WGAVPDEA	< -0.25
TDMSDITRGSILSNTYGNIA	< -0.25
QGPKLRTGSRANALSGWCNT	< -0.25
AALMSTDLGSRRFRLPEVHV	< -0.25
EESLPI	< -0.25
CFSLLEGVLSAGTGRHMRAN	< -0.25
CGRGGRAS	< -0.25
SRRRAHPGMIG	< -0.25
RKLSSADFPRCENGRTWYTS	< -0.25
ELQ	< -0.25
SESISGGLARIG	< -0.25
FRMFPAYL	< -0.25

Substance	growth estimate
VRLFCVWLRMSRVVPYGRVE	< -0.25
EANDRNGGPTGLASN	< -0.25
RDCKNVRCLGF	< -0.25
RPRGVGPGRGPEL	< -0.25
LLSSFRPHN	< -0.25
MLATGAMVYTRIQ	< -0.25
VTQGGFGRHGWLKGTGSIAG	< -0.25
VGALSPMTSRPPCHSHGT	< -0.25
HSYDCTGKVGQWT	< -0.25
VYISGALTVCRLPGW	< -0.25
AFTSSCALR	< -0.25
KRTRLRPRHRVPMCYMETDM	< -0.25
WEIKRYSVSTHVTEIAICGR	< -0.25
FGVYGTRYKHLPTPCVHRPI	< -0.25
GSDSYRMEVSSA	< -0.25
DAHGSLGEKGRKIIDTVMGY	< -0.25
PGRSVRYSKPRLV	< -0.25
YGDQKIRR	< -0.25
CVLRWQSLIIVDGFGDPQPR	< -0.25
DGSTST	< -0.25
PAISVHHLGREWRHGRTSHA	< -0.25
RPTTLRLLGRATFGAAKRIG	< -0.25
